# The other results are listed elsewhere or left out. These are further read-outs of the screen, such as a control signal, another cell line or another target. No call is given for them. The list favours compounds with an active or inconclusive main result. Words in brackets tell the shape of the fitted curve; partial curves, single points and poor fits give uncertain potencies.
# Test: qHTS Assay for Lipid Storage Modulators in Drosophila S3 Cells;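 for cell number change: cells counted by Cell Tracker Red CMTPX staining in the red channel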
# Details: BODIPY lipid droplet fluorescence, 18-24 h; for cell number change: measured here: cell count max response, cells fed with added oleic acid
# Summary of the method: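 Laser-scanning cytometry quantifies lipid droplet accumulation (500–530 nm total intensity; droplet/cell object ratio) in oleic acid-fed (400 uM added) Drosophila S3 cells treated with a concentration series. 20 uM Triacsin C defined 100% inhibition.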
# [1] = measured here: lipid fluorescence (Fed channel) AC50, cells fed with added oleic acid
# [2] = measured here: cell number channel AC50, cells fed with added oleic acid
SMILES,cell number change [%],AC50 [1],AC50 [2]
O=C(NCCOc1ccccc1)c1cncc(Br)c1,24.4,"29.1 µM [rising, single point]",
Cc1ccc(OCC(=O)Nc2ccc(O)c(-c3nc4ccccc4o3)c2)cc1,-78.7,"29.1 µM [falling, single point]","13 µM [falling, partial curve, poor fit]"
CS(=O)(=O)N(CC(=O)NC1CCCCCC1)Cc1ccc(Cl)cc1,-59.6,,"29.1 µM [falling, single point]"
CCOc1ccc(OCCC(=O)OCC(=O)NC2CCCCC2)cc1,5.94,"29.1 µM [rising, single point]",
COc1cc(SC#N)ccc1N=Cc1c(C)[nH]n(-c2ccc(C)cc2)c1=O,-65.1,"14.6 µM [falling, partial curve]","16.4 µM [falling, partial curve]"
COc1ccc(S(=O)(=O)N(C)CC(=O)NC2CC2)cc1OC,8.42,"0.58 µM [rising, single point]",
COC(=O)c1ccc(C23CC4(C2)[C@H](CN(C)[C@@H]4c2ccccc2)C3c2ccc(C(F)(F)F)cc2)cc1 (stereo partly drawn),-1.27,"0.116 µM [rising, full curve, poor fit]",
Cc1ccc(N2C(=O)C3C(c4ccccc4)N4CCCN4C3(C)C2=O)cc1 (stereo not drawn),16.2,"8.2 µM [falling, partial curve]",
CCOC(=O)C1CCCN(C(=O)c2cccc(S(=O)(=O)N(C)c3c(C)n(C)n(-c4ccccc4)c3=O)c2)C1 (stereo not drawn),-4.59,"2.06 µM [falling, single point]",
Cn1cc(Br)c(C(=O)NC(=S)N2CCN(c3ccccn3)CC2)n1,22.6,,
C=CCSC1=Nc2cc(OC)c(OC)cc2C2=NC(=O)CN12,-26,,
COc1ccc(/C=C(/Sc2nnc(-c3ccc(Cl)cc3)o2)C(=O)O)cc1,35.5,,
COc1ccc(OC)c(NC(=O)COC(=O)c2ccc(-n3cnnn3)cc2)c1,0.725,"0.731 µM [rising, single point]",
CN1CCN(c2ccc(NC(=O)COc3cccc4ccccc34)cc2)CC1,9.66,"6.51 µM [falling, single point]",
CCOC(=O)C1CCCN(C(=O)CCn2nc(-c3ccccc3)ccc2=O)C1 (stereo not drawn),-24.8,"3.26 µM [rising, partial curve]",
Cc1ccc(-n2c(CNc3ccc(C)c(Cl)c3)n[nH]c2=S)cc1,-37.9,"32.6 µM [falling, single point]","29.1 µM [falling, single point]"

SMILES,cell number change [%],AC50 [1],AC50 [2]
Cc1cccc(NC(=O)c2cccs2)n1,0.506,"10.3 µM [rising, single point]",
COc1ccc(C(C)=O)cc1Cn1c(=O)cc(C)[nH]c1=O,-39.7,,"14.6 µM [falling, partial curve, poor fit]"
Cc1c(Cl)cccc1NC(=O)CNC(=O)Cc1c[nH]c2ccccc12,6.84,"2.06 µM [rising, full curve]",
Fc1ccc(-c2nc3ccccc3c3nc4ccccc4n23)cc1,-2.9,"23.1 µM [rising, single point]",
CN(C)/C(CN1CCCCC1)=C1\N=C(c2ccccc2)OC1=O,12.1,"29.1 µM [rising, single point]",
Cc1c(O)ccc2c(CN3CCOCC3)cc(=O)oc12,25.4,"18.4 µM [falling, single point]",
Cn1c(SCC(=O)N2CCCc3ccccc32)nnc1-c1ccco1,-14,"1.64 µM [falling, full curve, poor fit]",
COCCNc1ncnc2c1nc1n2CCCC1,22.5,"29.1 µM [rising, single point]",
COc1cc(-c2nnc(SCC(=O)OC3CCCCC3)o2)cc(OC)c1OC,1.29,,
O=S(=O)(c1cccs1)N1CCN(c2ccc(F)cc2)CC1,-15.1,"6.51 µM [falling, partial curve, poor fit]",
C/C=C/c1ccc(OCCCNC)c(OC)c1,-15.5,,
CC(NC(=O)CCNC(=O)c1ccc(Br)cc1)c1ccc(S(N)(=O)=O)cc1 (stereo not drawn),3.5,,
CC(c1ccon1)N(C)Cc1cn(C)nc1-c1ccc2c(c1)OCCO2 (stereo not drawn),-4.13,"0.651 µM [falling, single point]",
CNC(=O)c1c(NC(=O)CCS(=O)(=O)c2ccccc2)sc2c1CCN(C(=O)OC)C2,,,"0.731 µM [rising, full curve, poor fit]"
CC(=O)c1ccc(S(=O)(=O)N2CCN(C(=O)c3ccc(-n4cncn4)c([N+](=O)[O-])c3)CC2)cc1,-34.6,"0.00411 µM [falling, full curve, poor fit]",

# Pulled by structure from above:
SMILES,cell number change [%],AC50 [1],AC50 [2]
COc1cc(-c2nnc(SCC(=O)OC3CCCCC3)o2)cc(OC)c1OC,1.29,,
COc1ccc(C(C)=O)cc1Cn1c(=O)cc(C)[nH]c1=O,-39.7,,"14.6 µM [falling, partial curve, poor fit]"

# Source: PubChem BioAssay AID2685 (National Center for Advancing Translational Sciences (NCATS), 2010)
